No constants are given. Whether binding was seen depends on the method and setting. A result given as binding can be weak or reduced; the word gives no strength.
Target: retinoid X receptor alpha (RXRα), full-length wild-type human, His-tag cleaved (human) (UniProt P19793)
Experiment: protein-binding microarray (double-stranded DNA probes), each partner detected by its own antibody; purified RXRα combined with purified partner NR at a 3:1 NR:RXRα ratio (exceptions in Supplementary Data 1), incubated 1 h on the DNA array in PBS pH 7.4, 2% milk, 0.02% Triton X-100, 1 mM DTT, BSA, salmon testes DNA, no ligand; separate arrays probed with anti-RXRα and with an antibody to the partner; agreement of the two profiles taken as heterodimer binding; both purified

Sequences of proteins named here, by UniProt entry; tags and fusion partners are left off.
UniProt P19793: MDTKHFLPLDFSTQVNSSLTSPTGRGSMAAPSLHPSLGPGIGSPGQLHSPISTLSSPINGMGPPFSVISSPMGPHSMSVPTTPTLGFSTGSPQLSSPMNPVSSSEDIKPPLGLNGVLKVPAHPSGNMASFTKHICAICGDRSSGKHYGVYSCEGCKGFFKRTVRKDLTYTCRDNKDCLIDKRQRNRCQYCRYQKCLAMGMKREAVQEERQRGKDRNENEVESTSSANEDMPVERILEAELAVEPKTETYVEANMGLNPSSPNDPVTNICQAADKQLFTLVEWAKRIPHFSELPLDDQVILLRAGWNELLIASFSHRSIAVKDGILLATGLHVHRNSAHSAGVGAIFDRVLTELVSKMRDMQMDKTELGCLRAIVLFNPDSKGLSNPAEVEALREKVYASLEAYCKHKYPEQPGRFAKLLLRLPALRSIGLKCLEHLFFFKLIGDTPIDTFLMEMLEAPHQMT

For THRα (from UniProt P10827-2), which binding is on record?
Its binding is “binds”.

— publication PMC6555819, “Comprehensive study of nuclear receptor DNA binding provides a revised framework for understanding receptor specificity”
